Patent US20240368286A1
Numbering of substitutions follows the chain as printed. Results are given in words; binding and its absence hold for the method and conditions named. Some binding calls cover weakened binding; strength is not graded here.

T1: Human GFRAL protein (Biacore analyte) (human) (UniProt Q6UXV0)
T1 sequence (looked up): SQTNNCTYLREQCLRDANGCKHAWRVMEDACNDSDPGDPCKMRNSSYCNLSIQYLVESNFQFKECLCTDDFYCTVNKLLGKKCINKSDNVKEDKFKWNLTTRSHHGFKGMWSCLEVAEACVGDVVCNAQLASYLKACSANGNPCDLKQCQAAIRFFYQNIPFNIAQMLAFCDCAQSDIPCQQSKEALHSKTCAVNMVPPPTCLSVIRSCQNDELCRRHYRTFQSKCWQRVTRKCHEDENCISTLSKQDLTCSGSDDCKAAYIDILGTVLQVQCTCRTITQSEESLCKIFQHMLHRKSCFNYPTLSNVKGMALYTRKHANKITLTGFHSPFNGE

T2: Mouse GFRAL protein (Biacore analyte) (mouse) (UniProt Q6SJE0)
T2 sequence (looked up): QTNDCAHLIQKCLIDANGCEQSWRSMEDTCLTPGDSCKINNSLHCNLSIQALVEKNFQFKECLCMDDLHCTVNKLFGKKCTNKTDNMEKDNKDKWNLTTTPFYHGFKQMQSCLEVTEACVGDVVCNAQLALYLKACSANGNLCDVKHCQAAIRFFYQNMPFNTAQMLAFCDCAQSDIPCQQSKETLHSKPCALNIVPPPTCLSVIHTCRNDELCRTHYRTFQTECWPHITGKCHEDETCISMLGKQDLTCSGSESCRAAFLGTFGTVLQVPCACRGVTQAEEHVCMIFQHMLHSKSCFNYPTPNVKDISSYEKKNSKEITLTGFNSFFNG

B1: 168A7 (antibody, V domains shown)
VH: QVTLKESGPGILKPSQTLSLTCSFSGFSLSTSDMGVGWIRQPSGKGLEWLAHIWWDDDKYYNPSLKRQLTISKDNSRNQVFLKISSVDTTDTATYYCARLYDYDDEYYFDYWGQGTTLTVSS
VL: DIQMTQTKSSLSASLGDRVTISCRASQDSNNYLNWYQQKPDGTVKLLIYYTSRLHSGVPSRFSGSGSGTDYSLTISNLEHEDIATYFCQQGNTIPWTFGGGTKLEIK
B2: 8E10 (antibody, V domains shown)
VH: QVQLQQSGSELVRPGSSVKISCRASGYTFSNYWMNWVKQRPGQGLEWIGQIYPGDDDADYNGKFQGKATLTADKSSSTAYMQLNTLTSEDSAVYFCTRSGRRDFDYWGQGTTLTVSS
VL: NIVLTQSPASLAVSLGQRATISCRASESIDNYGNSFMHWYQQKPGQPPKLLIYRASNLESGVPARFSGSGSRTDFTLTIDPVEADDAATYYCQQNNEDPYTFGGGTKLEIK
B3: 26D7 (antibody, V domains shown)
VH: QIQLVQSGPELKKPGETVKISCKVSGYTFTDYGMNWVKQTPGKDLKWVGWINTYTGEPTYADDFKDRFAFSLEASASTAYLQINNLKNEDTATYFCARRYGYDAGIDCWGQGTTLTVSS
VL: B2 VL with A9P, I29V, N31S, S35N, F36L, R54L, N57Y, Y100W
B4: 26D7H3aL2c (antibody, V domains shown)
VH: QVQLVQSGAEVKKPGASVKISCKVSGYTFTDYGMNWVRQTPGQGLKWVGWINTYTGEPTYADDFKDRFTFTLDASTSTAYMELRSLRSDDTAVYFCARRYGYDAGIDAWGQGTLVTVSS
VL: EIVLTQSPGTLSLSPGERATLSCRASESVESYGNNLMHWYQQKPGQAPRLLIYLASYLESGVPDRFSGSGSGTDFTLTISRLEPEDFATYYCQQNNESPWTFGQGTKVEIK
B5: 26D7H5bL5a (antibody, V domains shown)
VH: QVQLVQSGAEVKKPGASVKVSCKVSGYTFTDYGMNWVRQAPGQGLEWMGWINTYTGEPTYAQKLQGRVTFTTDTSTSTAYMELRSLRSDDTAVYYCARRYGYDAGIDAWGQGTTVTVSS
VL: DIQMTQSPSSLSASVGDRVTITCRASESVESYGNNLMHWYQQKPGKAPKLLIYLASYLESGVPSRFSGSGSGTDFTLTISSLQPEDFATYYCQQNNESPWTFGGGTKLEIK

target: T1, Human GFRAL protein (Biacore analyte) (human); experiment: Biacore SPR

Binder	binding
B1	binds
B2	binds
B3	binds
B4	binds
B5	binds

target: T2, Mouse GFRAL protein (Biacore analyte) (mouse); experiment: Biacore SPR

Binder	binding
B3	binds
B4	binds
B5	binds
